Data set [1] can be described thus: NMR T1 relaxation and relaxation enhancement of substrate nuclei. Conditions: complex 1 mM, Lactate 10 mM; 7.05 T and 39° C. An excerpt: (§1) Quantitatively, the relaxation enhancement, ε, of the substrate nuclei induced by the paramagnetic complex may be expressed in terms of this ratio:
(§2) in which Ri^s represents the observed relaxation rate of the substrate nucleus of interest without paramagnetic promotion and Ri^s* is the corresponding relaxation rate observed when the paramagnetic chelate is present in solution.
(§3) The relaxation rate Ri is equal to 1/Ti, wherein i=1 or 2.
The reversible interaction of lactate at the paramagnetic Gd(III) centre promotes a dramatic reduction of T1 and T2 of its resonances. In fact, in the solution containing GdDO3A 1 mM and Lactate 10 mM, the T1 (at 7.05 T and 39° C.) of the ^1H-methyl resonance passes from 2.9 s to 8.0 ms, whereas in an analogous experiment T1 of the ^13C-methyl resonance passes from 3.5 s to 30.0 ms wherein the relaxation enhancement for ^1H-methyl, ^1Hε is 362.5 while ^13Cε is 116.7.

Test in data set [2]: as above
The following applies: complex 0.9 mM, trifluoro-lactate 10 mM; 312 K. On the procedure:
as §1, §2, §3
At 7.05 T and 312° K, the relaxation time T1 of ^19F resonance of a 10 mM solution of CF3—CH(OH)—COO^− is 4.5 s.
Upon the addition of GdDO3A 0.9 mM the T1 value becomes 23.0 ms wherein the relaxation enhancement ^19Fε is 195.6.

Test in data set [3]: as above
Conditions: 20 mM inorganic phosphate, 0.2 mM complex; 7.1 T, pH 7.4, 39° C. On the procedure: as §1, §2, §3
The T1 of a 20 mM solution of inorganic phosphate at 7.1 T, pH 7.4, and 39° C. is very long (about 10 s), but in the presence of 0.2 mM of GdDO3A it dramatically shortens to 36 ms (^31Pε=277.8). The very short T1 of ^31P-phosphate, with respect ^1H-, ^13C-, and ^19F-lactate, is due to the closer proximity of the ^31P nucleus to the metal centre in the ternary complex.

The results in this text go back to patent US7608249B2, “Enhanced substrate imaging by reversible binding to a paramagnetic complex” (Bracco Imaging S.p.A., priority 2001, dated 2009).

`O=C([O-])CN1CCNCCN(CC(=O)[O-])CCN(CC(=O)[O-])CC1.[Gd+3]` [GdDO3A]: in data set [1], the “T1 of the 1H-methyl resonance” value came to 8.0 ms; the “T1 of the 13C-methyl resonance” value came out at 30.0 ms; the “relaxation enhancement 13Cε” value worked out at 116.7; the “relaxation enhancement for 1H-methyl, 1Hε” value was 362.5. Moreover, in data set [2], the “T1 of 19F resonance” value stood at 23.0 ms and the “relaxation enhancement 19Fε” value is 195.6. Also, in data set [3], the “T1 of 31P” value is recorded as 36 ms and the “relaxation enhancement 31Pε” value came out at 277.8.
